PubChem BioAssay AID1259254 – NCATS – 2017

Purpose: 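Gene knock-downs that lead to re-replication, shown by excess G2 DNA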 (primary screen)
Cell system: human HCT116 colorectal cancer cells
Reagents: single siRNA against human genes
Timing: 3 days
Detection: 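Nuclei stained with Hoechst and imaged; cell-cycle phase assigned by DNA content; G2 share scaled per plate, non-targeting siRNA 0%, GMNN siRNA 100%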
Direction: G2 robust z-score and G2 cells, % of GMNN control: higher = more G2 cells, more excess DNA replication
Call rule: 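Active siRNAs have a G2 robust z of 5 or more median absolute deviations over the median, which in these data means about 38% or higher of GMNN control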
Here is one part, drawn at random, of about 59,000 deposited reagents. Of all reagents, about 1,550 (2.6%) are marked active. 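G2 share is only a proxy for re-replication; each gene was hit by three separate siRNAs, and active genes were retested.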 Reagents against one gene are numbered here. Not all columns of the deposit are shown. The record does not give: the amount of reagent.

For OR11H12 (olfactory receptor family 11 subfamily H member 12) #1, the values are G2 robust z-score 0.811; G2 cells, % of GMNN control 8.67; inactive.
OR11H12 (olfactory receptor family 11 subfamily H member 12) #2 showed G2 robust z-score -0.711; G2 cells, % of GMNN control -2.04; inactive.
OR11H12 (olfactory receptor family 11 subfamily H member 12) #3 showed G2 robust z-score -0.14; G2 cells, % of GMNN control 1.98; inactive.
With knock-down of NCOR1P2 (NCOR1 pseudogene 2) #1, the record shows G2 robust z-score -0.216; G2 cells, % of GMNN control 1.45; inactive.
NCOR1P2 (NCOR1 pseudogene 2) #2 scored G2 robust z-score 0.982; G2 cells, % of GMNN control 9.88; inactive.
NCOR1P2 (NCOR1 pseudogene 2) #3 showed G2 robust z-score -0.902; G2 cells, % of GMNN control -3.38; inactive.
GOSR1 (golgi SNAP receptor complex member 1) #1 showed G2 robust z-score 1.79; G2 cells, % of GMNN control 15.5; inactive.
After knock-down of GOSR1 (golgi SNAP receptor complex member 1) #2, the record shows G2 robust z-score 1.51; G2 cells, % of GMNN control 13.6; inactive.
GOSR1 (golgi SNAP receptor complex member 1) #3 scored G2 robust z-score -0.973; G2 cells, % of GMNN control -3.88; inactive.
With knock-down of NCKIPSD (NCK interacting protein with SH3 domain) #1, the record shows G2 robust z-score -1.62; G2 cells, % of GMNN control -8.44; inactive.
NCKIPSD (NCK interacting protein with SH3 domain) #2 scored G2 robust z-score -1.04; G2 cells, % of GMNN control -4.32; inactive.
NCKIPSD (NCK interacting protein with SH3 domain) #3 gave G2 robust z-score 2.41; G2 cells, % of GMNN control 19.9; inactive.
ACOX1 (acyl-CoA oxidase 1) #1 showed G2 robust z-score 0.0123; G2 cells, % of GMNN control 3.05; inactive.
With knock-down of ACOX1 (acyl-CoA oxidase 1) #2, the screen gave G2 robust z-score 2.08; G2 cells, % of GMNN control 17.6; inactive.
ACOX1 (acyl-CoA oxidase 1) #3 showed G2 robust z-score 4.39; G2 cells, % of GMNN control 33.9; inactive.
With knock-down of ADGRF2P (adhesion G protein-coupled receptor F2, pseudogene) #1, the screen gave G2 robust z-score 0.836; G2 cells, % of GMNN control 8.85; inactive.
After knock-down of ADGRF2P (adhesion G protein-coupled receptor F2, pseudogene) #2, the record shows G2 robust z-score 0.394; G2 cells, % of GMNN control 5.74; inactive.
Knock-down of ADGRF2P (adhesion G protein-coupled receptor F2, pseudogene) #3 resulted in: G2 robust z-score -0.59; G2 cells, % of GMNN control -1.18; inactive.
With knock-down of PRRX1 (paired related homeobox 1) #1, the screen gave G2 robust z-score -0.777; G2 cells, % of GMNN control -2.5; inactive.
PRRX1 (paired related homeobox 1) #2 showed G2 robust z-score 0.107; G2 cells, % of GMNN control 3.72; inactive.
Depletion of PRRX1 (paired related homeobox 1) #3 came out at: G2 robust z-score -0.0309; G2 cells, % of GMNN control 2.75; inactive.
For REM1 (RRAD and GEM like GTPase 1) #1 the deposit lists G2 robust z-score -1.19; G2 cells, % of GMNN control -5.43; inactive.
REM1 (RRAD and GEM like GTPase 1) #2 showed G2 robust z-score -0.633; G2 cells, % of GMNN control -1.49; inactive.
For REM1 (RRAD and GEM like GTPase 1) #3, the values are G2 robust z-score -1.15; G2 cells, % of GMNN control -5.15; inactive.

Copied from the list:
For “G2 cells, % of GMNN control”, PRRX1 (paired related homeobox 1) #1 shows -2.5
REM1 (RRAD and GEM like GTPase 1) #2, G2 cells, % of GMNN control → -1.49
Under “G2 cells, % of GMNN control”, NCOR1P2 (NCOR1 pseudogene 2) #2 has 9.88
